For part of these data: A weaker result is weaker than the reference pair of the same experiment. For part of these data: Protein sequences can lack the tags named with them.
How the values were obtained:
IFI16FL (Homo sapiens) [1] = experiment: EMSA; conditions: recombinant protein; residues 1-729; protein details: C-terminal His6; label: FAM; single-stranded DNA
AIM2FL (Homo sapiens) [2] = molecular target: T1, AIM2FL (Homo sapiens) (UniProt O14862); experiment: FP; conditions: 160 mM KCl (60 mM KCl for IFI16HinAB), pH and temperature not given in the available text, recombinant protein, residues 1-343, label: FAM
T1 sequence (looked up): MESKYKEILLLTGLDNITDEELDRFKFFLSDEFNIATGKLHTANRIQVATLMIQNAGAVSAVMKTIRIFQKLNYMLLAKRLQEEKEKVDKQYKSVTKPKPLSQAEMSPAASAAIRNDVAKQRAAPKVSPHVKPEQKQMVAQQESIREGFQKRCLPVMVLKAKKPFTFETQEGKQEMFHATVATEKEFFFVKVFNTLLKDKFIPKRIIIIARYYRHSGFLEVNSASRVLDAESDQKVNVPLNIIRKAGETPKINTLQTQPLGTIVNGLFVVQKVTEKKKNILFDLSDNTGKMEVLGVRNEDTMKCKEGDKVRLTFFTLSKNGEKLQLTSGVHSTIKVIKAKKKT

Chains of the proteins cited; added tags and fusions are not shown. A line that says so, or that is headed by a name, gives the form on record, which may keep a tag or linker.
IFI16FL (Homo sapiens), one chain, as listed by the source: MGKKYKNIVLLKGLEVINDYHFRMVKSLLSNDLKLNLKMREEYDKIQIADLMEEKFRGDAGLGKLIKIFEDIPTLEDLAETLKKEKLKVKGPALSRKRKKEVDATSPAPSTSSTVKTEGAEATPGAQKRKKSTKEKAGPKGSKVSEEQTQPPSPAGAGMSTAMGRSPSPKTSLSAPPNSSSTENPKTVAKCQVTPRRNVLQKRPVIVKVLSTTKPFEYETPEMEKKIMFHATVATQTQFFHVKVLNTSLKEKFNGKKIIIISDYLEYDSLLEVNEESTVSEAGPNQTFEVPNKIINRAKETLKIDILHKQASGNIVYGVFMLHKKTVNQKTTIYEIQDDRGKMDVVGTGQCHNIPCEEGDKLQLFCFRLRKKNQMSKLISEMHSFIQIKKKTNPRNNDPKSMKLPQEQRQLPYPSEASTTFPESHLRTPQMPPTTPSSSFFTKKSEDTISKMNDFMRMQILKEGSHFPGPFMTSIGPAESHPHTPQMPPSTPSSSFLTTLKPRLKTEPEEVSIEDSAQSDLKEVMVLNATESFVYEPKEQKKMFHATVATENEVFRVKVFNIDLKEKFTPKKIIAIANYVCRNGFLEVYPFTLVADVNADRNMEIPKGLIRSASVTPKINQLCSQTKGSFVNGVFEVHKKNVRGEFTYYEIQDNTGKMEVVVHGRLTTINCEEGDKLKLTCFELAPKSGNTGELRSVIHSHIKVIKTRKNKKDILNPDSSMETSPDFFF

AIM2FL (Homo sapiens) [3] = molecular target: T1, AIM2FL (Homo sapiens); experiment: fluorescence anisotropy; conditions: 160 mM KCl, 60 mM KCl for IFI16HinAB, FAM probe 3-6 nM (FA) or 20 nM (EMSA), recombinant protein, residues 1-343, label: FAM
AIM2FL (Homo sapiens) [4] = molecular target: T1, AIM2FL (Homo sapiens); experiment: competition with a labelled probe; conditions: against 60-bp FAM-dsDNA; recombinant protein; residues 1-343; label: FAM (unlabeled as competitor)
IFI16FL (Homo sapiens) [5] = experiment: FP; conditions: 160 mM KCl (60 mM KCl for IFI16HinAB); pH and temperature not given in the available text; recombinant protein; residues 1-729; protein details: C-terminal …; label: FAM (unlabeled as competitor)

“AAAGAAAGAAAGAAAGAAAGAAAG [24-base ssDNA_A]” was tested, and the binding result (IFI16FL (Homo sapiens) [1]) was “binds more weakly”, the binding result (AIM2FL (Homo sapiens) [2]; single-stranded DNA) was “binds more weakly” and the Kd (AIM2FL (Homo sapiens) [3]; single-stranded DNA) was > 0.5 µM.

“AAAGAAAGAAAGAAAGAAAGAAAG [24-base ssRNA_A]”: binds more weakly (AIM2FL (Homo sapiens) [2]).

“AAAGAAAGAAAGAAAGAAAGAAAGAAAGAAAGAAAGAAAGAAAGAAAGAAAGAAAGAAAG [60-base ssRNA_A]”: binds more weakly (AIM2FL (Homo sapiens) [4]).

For “TAAGACACGATGCGATAAAATCTG / CAGAUUUUAUCGCAUCGUGUCUUA [24-bp DNA:RNA hybrid]”, the binding result (AIM2FL (Homo sapiens) [2]; DNA:RNA hybrid) was “binds more weakly” and the Kd (AIM2FL (Homo sapiens) [3]; DNA:RNA hybrid) was > 0.5 µM.

“TAAGACACGATGCGATAAAATCTGTTTGTAAAATTTATTAAGGGTACAAATTGCCCTAGC (double strand) [60-bp dsDNA]”: binds (IFI16FL (Homo sapiens) [5]).

“TTTCTTTCTTTCTTTCTTTCTTTC [24-base ssDNA_T]”: binds more weakly (IFI16FL (Homo sapiens) [1]); binds more weakly (AIM2FL (Homo sapiens) [2]; single-stranded DNA).

“UAAGACACGAUGCGAUAAAAUCUG / CAGAUUUUAUCGCAUCGUGUCUUA [24-bp dsRNA]”: binds more weakly (AIM2FL (Homo sapiens) [2]).

“UUUCUUUCUUUCUUUCUUUCUUUC [24-base ssRNA_U]”: binds more weakly (AIM2FL (Homo sapiens) [2]).

— PMC10085679
